# Measurements from PubChem BioAssay AID540256 (National Center for Advancing Translational Sciences (NCATS), 2011).
# The campaign covered roughly 300,000 compounds. About 3,700 (1.2%) were called active. The shares of active, inactive and inconclusive entries below differ from those in the screen. Calls come from the whole dose curve; tested in HEK293 cells. A potency beside an inconclusive call is a rough fit, not a confirmed value.
# Assay: qHTS for Inhibitors of binding or entry into cells for Lassa Virus; note: nearly all actives have a fitted effect of over 50% in size
# Details: Lassa virus pseudotype entry inhibition, cell reporter; series mostly up to 37.9 µM
# Potency is the fitted concentration of half-maximal effect.
row,SMILES,Potency
1,Cc1cc(C(=O)OCC(=O)N2c3ccccc3NC(=O)C2(C)C)c(C)n1-c1ccccc1,"inconclusive: 3.98 µM [inhibitor, partial curve, poor fit]"
2,O=C(NC(Cc1ccccc1)C(=O)O)/C(=C\c1ccco1)NC(=O)c1ccc(Br)cc1 (stereo unspecified),inactive
3,COc1cccc(N2C(=O)C(CC(=O)Nc3ccccc3)N(CCc3sccc3C)C2=O)c1 (stereo unspecified),"inconclusive: 11.2 µM [inhibitor, partial curve, poor fit]"
4,COC12NC(=O)N(C)C1(OC)C(=O)N(C)C(=O)N2C (stereo unspecified),"inconclusive: 0.164 µM [inhibitor, full curve, poor fit]"
5,CCOc1ccc(N(C)S(=O)(=O)c2cc(-c3cc(C)no3)ccc2OC)cc1,"inconclusive: 14.1 µM [inhibitor, single point]"
6,COC(=O)c1c(-c2c(Cl)cccc2Cl)noc1C(=O)NN,"inconclusive: 1.26 µM [inhibitor, single point]"
7,Cc1cc(C)c2cc(C=O)c(Cl)nc2c1,"inconclusive: 0.891 µM [inhibitor, partial curve, poor fit]"
8,COc1ccc(OC)c(C(c2nnnn2C2CCCC2)N2CCN(c3ccccc3)CC2)c1 (stereo unspecified),"inconclusive: 3.98 µM [inhibitor, single point]"
9,COc1ccc(NC(=O)CN2C(=O)NC(C)(c3ccccc3)C2=O)cc1Cl (stereo unspecified),"inconclusive: 35.5 µM [inhibitor, single point]"
10,COc1cccc(/C=N/Nc2snc(SC)c2C#N)c1,active: 5.62 µM
11,Cc1onc(-c2ccccc2)c1C(=O)Nc1ncc([N+](=O)[O-])s1,"inconclusive: 5.62 µM [inhibitor, single point]"
12,Cc1cccc(NC(=O)C2CCCN(S(=O)(=O)c3ccc4c(c3)oc(=O)n4C)C2)c1C (stereo unspecified),inactive
13,Cc1cccc(-c2nnc3sc(-c4ccccc4)nn23)c1,inactive
14,Nc1nnc(CC(=O)N/N=C/c2ccc(-c3cccc(C(=O)O)c3)o2)s1,inactive
15,COc1ccc(CCNC(=O)c2ccccc2N(C)S(=O)(=O)c2ccccc2)cc1,"inconclusive: 16.4 µM [inhibitor, partial curve, poor fit]"
16,COc1cc(NC(=O)c2ccco2)ccc1NC(=O)c1ccccc1Cl,active: 12.6 µM
17,O=C1c2ccccc2C(=O)N1CCSc1ccccc1,"inconclusive: 2.31 µM [activator, partial curve]"
18,Cc1cc(C)c(OCC(=O)N(Cc2ccc(N(C)C)cc2)CC2CCCO2)c(C)c1 (stereo unspecified),"inconclusive: 3.98 µM [inhibitor, partial curve]"
19,Cc1cc(=O)n(CC(=O)N2CCCc3ccccc32)c2c1c(C)nn2-c1cccc(F)c1,"inconclusive: 0.562 µM [inhibitor, full curve, poor fit]"
20,O=C(CN1CCN(CCO)CC1)Nc1ccc(Cl)cc1C(=O)c1ccccc1,"inconclusive: 6.51 µM [activator, single point]"
21,CCn1c(=O)c2cc(C(=O)NCc3ccc(F)cc3Cl)sc2c2ccccc21,inactive

row,SMILES,Potency
1,COc1ccc(C(=O)Nc2ccccc2C(=O)Nc2ccccn2)cc1,"inconclusive: 15.8 µM [inhibitor, single point]"
2,CC(C)NC(=S)Nc1ccc2nc3n(c(=O)c2c1)CCCCC3,"inconclusive: 35.5 µM [activator, partial curve, poor fit]"
3,COc1ccc(-n2nc(C(=O)Nc3ccc4c(c3)OCO4)c3ccccc3c2=O)c(OC)c1,"inconclusive: 35.5 µM [inhibitor, partial curve, poor fit]"
4,CCOc1ccc(N(CC(=O)NCc2ccccc2)S(C)(=O)=O)cc1,inactive
5,CC1Cc2ccccc2N1C(=O)COc1ccc2c(c1)OCO2 (stereo unspecified),"inconclusive: 35.5 µM [inhibitor, single point]"
6,O=C(Cn1c(NCCO)nc2ccccc21)Nc1ccc2c(c1)OCCCO2,inactive
7,O=C(NCCc1ccc(F)cc1)C(=O)NCC(c1cccs1)S(=O)(=O)c1ccc(Cl)cc1 (stereo unspecified),"inconclusive: 17.8 µM [inhibitor, single point]"
8,CCS(=O)(=O)N1CC(=O)N(c2ccc(Cl)cc2C)C(C)(C(=O)NC2CCCCC2)C1 (stereo unspecified),inactive
9,O=C1CCCCN1CCc1c[nH]c2ccccc12,"inconclusive: 20.6 µM [activator, partial curve, poor fit]"
10,CCOC(=O)C(CC)Sc1ncnc2c1c(-c1ccccc1)cn2-c1ccc(OC)cc1 (stereo unspecified),inactive
11,CCN(CC)S(=O)(=O)c1cccc(C(=O)OCC(=O)Nc2ccccc2OC(F)F)c1,"inconclusive: 18.3 µM [inhibitor, single point]"
12,Cn1c(=O)c2c(nc(N3CCCCCC3)n2CC(O)COc2ccc(Cl)cc2)n(C)c1=O (stereo unspecified),"inconclusive: 5.17 µM [inhibitor, full curve, poor fit]"
13,Cc1ncoc1C(=O)NC1CCCc2c1cnn2-c1ccc(C(C)(C)C)cc1 (stereo unspecified),"inconclusive: 11.2 µM [inhibitor, partial curve, poor fit]"
14,Cc1cc(C(=O)OCC(=O)NC(C)c2ccccc2)c(C)o1 (stereo unspecified),"inconclusive: 35.5 µM [activator, single point]"
15,COc1ccccc1N/C(=N/S(=O)(=O)c1ccc(C)cc1)c1ccc(Cl)cc1,"inconclusive: 10.3 µM [inhibitor, partial curve, poor fit]"
16,COc1ccc(OCC(=O)Nc2ccccc2-c2ccccc2)cc1,"inconclusive: 4.47 µM [inhibitor, single point]"
17,CCn1c2ccccc2c2cc(CN3CCN(Cc4ccc(Cl)cc4)CC3)ccc21,"inconclusive: 35.5 µM [inhibitor, partial curve, poor fit]"
18,CCOC(=O)c1ccc(NC(=O)CC2C(=O)N(c3cccc(OC)c3)C(=O)N2Cc2cccnc2)cc1 (stereo unspecified),"inconclusive: 35.5 µM [inhibitor, single point]"
19,O=C(CN1C(=O)N/C(=C\c2ccccc2OCc2ccc(C(=O)O)cc2)C1=O)Nc1ccc(F)cc1,inactive
20,CCOc1ncccc1C(=O)NCCc1ccc(Cl)cc1,"inconclusive: 0.0891 µM [activator, full curve, poor fit]"

# Among those listed so far, these have an aryl thioether with sulfur outside any ring.
row,SMILES,Potency
10,COc1cccc(/C=N/Nc2snc(SC)c2C#N)c1,active: 5.62 µM
17,O=C1c2ccccc2C(=O)N1CCSc1ccccc1,"inconclusive: 2.31 µM [activator, partial curve]"
10,CCOC(=O)C(CC)Sc1ncnc2c1c(-c1ccccc1)cn2-c1ccc(OC)cc1 (stereo unspecified),inactive
